PubChem BioAssay AID1159584, Peter MacCallum Cancer Centre, 2016

Purpose: 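Genes that CDH1-null MCF10A cells selectively depend on to survive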 (primary screen)
Cells: human MCF10A breast epithelial cells, parental and CDH1-null
Knock-down reagent: siRNA against human genes
Read-out: 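ATP luminescence (CellTiter-Glo) viability per line relative to mean mock wells over all plates, and the ratio of CDH1-null to parental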
Reading the numbers: CDH1-null / parental viability ratio: higher = CDH1-null cells survive relatively better than parental; CDH1-null viability vs mock: higher = more viable CDH1-null cells
The whole screen tested about 18,000 reagents; below is a part drawn at random. Further read-outs or replicates are left out here. Reagent sequences are not shown. Not given: the amount of reagent, the time to read-out.

target gene | CDH1-null / parental viability ratio | CDH1-null viability vs mock (fraction of mock)
ARHGEF7 | 0.81 | 0.63
TSKU | 1.05 | 1.23
MID1 | 0.96 | 0.96
TTI2 | 1.12 | 0.96
GK5 | 0.96 | 0.71
CLEC18A | 0.59 | 0.62
ERP44 | 1.01 | 0.79
STXBP4 | 0.97 | 1.01
EARS2 | 1.19 | 0.94
NINJ1 | 1.03 | 0.4
MIR1-1HG | 0.94 | 0.94
PAPSS2 | 0.82 | 0.64
HSPA5 | 0.95 | 0.77
OCA2 | 1.02 | 0.92
KCNA4 | 1.12 | 0.84
OR8J3 | 0.67 | 0.56
WIPF2 | 0.91 | 0.58
LZIC | 1.18 | 1.04
CIMAP3 | 0.95 | 0.84
ZNF239 | 1.21 | 1.11
AK1 | 0.86 | 0.62
NDN | 1.5 | 0.66
EEA1 | 1.09 | 0.86
ZNF480 | 1.08 | 0.98
FTSJ1 | 1.06 | 0.74
SDSL | 1.07 | 0.95
TMC8 | 1.52 | 0.76
COQ9 | 0.97 | 0.85
TNFRSF25 | 0.9 | 0.63
TERF2IP | 1.07 | 0.45
GPR31 | 1.41 | 1.06
COQ2 | 1.1 | 0.85

The list goes on; the last 9 above are carried over.
target gene | CDH1-null / parental viability ratio | CDH1-null viability vs mock (fraction of mock)
ZNF480 | 1.08 | 0.98
FTSJ1 | 1.06 | 0.74
SDSL | 1.07 | 0.95
TMC8 | 1.52 | 0.76
COQ9 | 0.97 | 0.85
TNFRSF25 | 0.9 | 0.63
TERF2IP | 1.07 | 0.45
GPR31 | 1.41 | 1.06
COQ2 | 1.1 | 0.85
CYP2C18 | 0.89 | 0.82
GPRC5C | 0.84 | 0.79
SAP30 | 1.01 | 1.01
SAMD14 | 0.96 | 0.79
LRP4 | 0.91 | 0.75
GLOD4 | 1.08 | 0.97
COL22A1 | 0.91 | 0.79
DEPDC4 | 1.16 | 0.81
EID3 | 1.05 | 0.78
OR51I1 | 0.79 | 0.78
GRK3 | 0.91 | 1
POGZ | 0.89 | 0.64
WDR25 | 0.89 | 0.64
MYRF | 0.87 | 0.78
PCNX1 | 1.14 | 1.03
PRTG | 1.13 | 0.76
BBS10 | 1.05 | 0.68
ANKRD40 | 1.36 | 0.79
RHBG | 0.82 | 0.23
GPS2 | 1.13 | 1.13
G3BP1 | 1.18 | 1.06
RAB9A | 0.92 | 0.92
MCAT | 1.02 | 1
PDHA1 | 1.15 | 1.08
C12orf57 | 1.23 | 1.18
DPEP3 | 1 | 0.54
CUEDC2 | 1.36 | 1.22
SPATA33 | 1.05 | 0.59
FNDC7 | 0.78 | 0.7
GNGT2 | 0.92 | 0.66
CAD | 0.84 | 0.74
HIKESHI | 1.05 | 0.78
PRNP | 1.29 | 1.1
GTF3C1 | 1.14 | 1.12
TMEM14C | 1.1 | 0.75
ATP2C2 | 0.96 | 1.06
GPAT2 | 1.45 | 0.45
CCDC92 | 0.87 | 0.48
OBP2A | 0.82 | 0.62
HNRNPF | 0.82 | 0.8
SLC2A8 | 1.01 | 0.79
PXMP4 | 0.8 | 0.69
OR2A1 | 1.18 | 1.23
OPN5 | 0.64 | 0.56
UPF1 | 0.72 | 0.58
MAGEA12 | 1.13 | 0.95
MGAT2 | 0.9 | 0.7
UGT8 | 1.14 | 1.23
NTRK1 | 0.86 | 0.72
PPME1 | 1.1 | 1.09
RABGGTA | 1.42 | 0.88
EFNA1 | 0.96 | 0.88
P2RY6 | 1.05 | 0.8
PFN4 | 1.06 | 0.66
CRACR2B | 1.15 | 0.62
